The other results are listed elsewhere or left out. Single values are uncertain, as repeats are few or missing.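 Imaging used 1,536-well plates; nuclei positive for cleaved PARP by antibody were divided by total DNA-stained nuclei to yield the apoptosis fraction. Doses for screening kept most cells viable, and cell lines differ markedly in resting and induced cleaved-PARP levels.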
Legend:
Assay in all cases: cleaved PARP positive nuclei fraction relative to DMSO control; melanoma cells; higher = more apoptosis
Conditions in all cases: library dose: low library concentration; 72 h
COLO792 = system: COLO792
COLO800 = system: COLO800
COLO829 = system: COLO829
G361 = system: G361
IPC-298 = system: IPC-298
IST-MEL1 = system: IST-MEL1
LB2518-MEL = system: LB2518-MEL
LOXIMVI = system: LOXIMVI
MEL-HO = system: MEL-HO

| SMILES | cleaved PARP positive nuclei fraction (COLO792) | cleaved PARP positive nuclei fraction (COLO800) | cleaved PARP positive nuclei fraction (COLO829) | cleaved PARP positive nuclei fraction (G361) | cleaved PARP positive nuclei fraction (IPC-298) | cleaved PARP positive nuclei fraction (IST-MEL1) | cleaved PARP positive nuclei fraction (LB2518-MEL) | cleaved PARP positive nuclei fraction (LOXIMVI) | cleaved PARP positive nuclei fraction (MEL-HO) |
| --- | --- | --- | --- | --- | --- | --- | --- | --- | --- |
| CS(=O)(=O)c1ccc(C(=O)Nc2ccc(Cl)c(-c3ccccn3)c2)c(Cl)c1 [vismodegib] + OCCn1cc(-c2cnc3nnn(Cc4ccc5ncccc5c4)c3n2)cn1 [PF04217903] (first compound 1 µM, partner dose 1 µM) | 95.9% | 97.8% | 138% | 72.6% | 23.3% | 49.8% | 125% | 298% | 33.7% |
| CC(=O)O[C@@]12CO[C@@H]1C[C@H](O)[C@@]1(C)C(=O)[C@H](O)C3=C(C)[C@@H](OC(=O)[C@H](O)[C@@H](NC(=O)OC(C)(C)C)c4ccccc4)C[C@@](O)([C@@H](OC(=O)c4ccccc4)[C@H]21)C3(C)C [Docetaxel] + CN(C)S(=O)(=O)c1ccc2c(c1)/C(=C/c1cc3c([nH]1)CCCC3)C(=O)N2 [SU6656] (first compound 0.0001 µM, partner dose 0.4 µM) | 505% | 90.2% | 407% | 724% | 149% | 267% | 159% | 96.9% | 121% |
| C[C@@H](N)c1ccc(C(=O)Nc2ccnc3[nH]ccc23)cc1 + C=CCn1c(=O)c2cnc(Nc3ccc(N4CCN(C)CC4)cc3)nc2n1-c1cccc(C(C)(C)O)n1 [MK1775] (first compound 0.4 µM, partner dose 0.02 µM) | 150% | 84.9% | 130% | 129% | 22.7% | 102% | 68.7% | 481% | 171% |
| CS(=O)(=O)c1ccc(C(=O)Nc2ccc(Cl)c(-c3ccccn3)c2)c(Cl)c1 [vismodegib] + COc1cc2c(Oc3ccc4[nH]c(C)cc4c3F)ncnc2cc1OCCCN1CCCC1 [cediranib] (first compound 1 µM, partner dose 0.4 µM) | 145% | 104% | 91.9% | 44.3% | 94.3% | 121% | 80.3% | 198% | 209% |
| C[C@@H](N)c1ccc(C(=O)Nc2ccnc3[nH]ccc23)cc1 + NC(=O)Nc1cc(-c2cccc(F)c2)sc1C(=O)N[C@H]1CCCNC1 [AZD7762] (first compound 0.4 µM, partner dose 0.02 µM) | 221% | 124% | 141% | 137% | 40.4% | 92.3% | 60.1% | 85.7% | 75.6% |
| Cn1sc(=O)n(Cc2ccccc2)c1=O + O=C(CCCCCCC(=O)Nc1ccccc1)NO [vorinostat] (first compound 0.4 µM, partner dose 0.08 µM) | 71.4% | 42.1% | 74.3% | 20.1% | 95.6% | 58.7% | 88.7% | 59.1% | 227% |
| Cn1sc(=O)n(Cc2ccccc2)c1=O + COc1cc2c(Oc3ccc4[nH]c(C)cc4c3F)ncnc2cc1OCCCN1CCCC1 [cediranib] (first compound 0.4 µM, partner dose 0.4 µM) | 35.5% | 47.9% | 95.6% | 35.2% | 66% | 85% | 41.2% | 112% | 120% |
| CS(=O)(=O)c1ccc(C(=O)Nc2ccc(Cl)c(-c3ccccn3)c2)c(Cl)c1 [vismodegib] + CC(C)(C)c1cnc(CSc2cnc(NC(=O)C3CCNCC3)s2)o1 [SNS-032] (first compound 1 µM, partner dose 0.01 µM) | 80.7% | 43.6% | 77.7% | 59.2% | 240% | 190% | 53.5% | 45.7% | 57.9% |
| C[C@]1(O)C[C@@H](c2nc(-c3ccc4ccc(-c5ccccc5)nc4c3)c3c(N)nccn32)C1 + Cc1cc(N2CCOCC2)cc2[nH]c(-c3c(NC[C@@H](O)c4cccc(Cl)c4)cc[nH]c3=O)nc12 [BMS536924] (first compound 0.4 µM, partner dose 0.2 µM) | 138% | 154% | 151% | 110% | 50.8% | 162% | 48.6% | 125% | 36.2% |
| CCN(CC)CCNC(=O)c1c(C)[nH]c(/C=C2\C(=O)Nc3ccc(F)cc32)c1C [sunitinib] + C[C@@H]1CCN(C(=O)CC#N)C[C@@H]1N(C)c1ncnc2[nH]ccc12 [CP690550] (first compound 0.4 µM, partner dose 1 µM) | 19.9% | 37.6% | 161% | 120% | 168% | 256% | 192% | 27% | 233% |
| C[C@@H](N)c1ccc(C(=O)Nc2ccnc3[nH]ccc23)cc1 + COc1cc2c(Oc3ccc4[nH]c(C)cc4c3F)ncnc2cc1OCCCN1CCCC1 [cediranib] (first compound 0.4 µM, partner dose 0.4 µM) | 166% | 44% | 62.2% | 93.9% | 119% | 31.3% | 76.6% | 130% | 157% |
| COc1ccc(C2=N[C@@H](c3ccc(Cl)cc3)[C@@H](c3ccc(Cl)cc3)N2C(=O)N2CCNC(=O)C2)c(OC(C)C)c1 [Nutlin-3] + CO[C@@H]1[C@H](N(C)C(=O)c2ccccc2)C[C@H]2O[C@]1(C)n1c3ccccc3c3c4c(c5c6ccccc6n2c5c31)C(=O)NC4 [Midostaurin] (first compound 0.1 µM, partner dose 0.08 µM) | 282% | 116% | 106% | 71.2% | 91.6% | 66.4% | 49% | 59.3% | 105% |
| CCN(CC)CCNC(=O)c1c(C)[nH]c(/C=C2\C(=O)Nc3ccc(F)cc32)c1C [sunitinib] + OCCn1cc(-c2cnc3nnn(Cc4ccc5ncccc5c4)c3n2)cn1 [PF04217903] (first compound 0.4 µM, partner dose 1 µM) | 83.2% | 71.2% | 70.8% | 66.9% | 96.1% | 51.2% | 34.9% | 19.5% | 37.2% |
| CN(c1ncccc1CNc1nc(Nc2ccc3c(c2)CC(=O)N3)ncc1C(F)(F)F)S(C)(=O)=O + C=CCn1c(=O)c2cnc(Nc3ccc(N4CCN(C)CC4)cc3)nc2n1-c1cccc(C(C)(C)O)n1 [MK1775] (first compound 0.08 µM, partner dose 0.02 µM) | 89% | 143% | 36% | 90.3% | 88.3% | 98.5% | 108% | 126% | 138% |
| CS(=O)(=O)c1ccc(C(=O)Nc2ccc(Cl)c(-c3ccccn3)c2)c(Cl)c1 [vismodegib] + C=CCn1c(=O)c2cnc(Nc3ccc(N4CCN(C)CC4)cc3)nc2n1-c1cccc(C(C)(C)O)n1 [MK1775] (first compound 1 µM, partner dose 0.02 µM) | 135% | 71.5% | 66.3% | 71.3% | 97.9% | 50.9% | 118% | 70.1% | 65.5% |
| CS(=O)(=O)c1ccc(C(=O)Nc2ccc(Cl)c(-c3ccccn3)c2)c(Cl)c1 [vismodegib] + CC1(C)NC(=O)N(c2ccc([N+](=O)[O-])c(C(F)(F)F)c2)C1=O [nilutamide] (first compound 1 µM, partner dose 1 µM) | 32% | 80.2% | 168% | 160% | 144% | 48.9% | 88.2% | 64.5% | 80.6% |
| C[C@]1(O)C[C@@H](c2nc(-c3ccc4ccc(-c5ccccc5)nc4c3)c3c(N)nccn32)C1 + CN(NC(=O)CC(=O)NN(C)C(=S)c1ccccc1)C(=S)c1ccccc1 [STA4783] (first compound 0.4 µM, partner dose 0.006 µM) | 82.8% | 269% | 180% | 221% | 48.8% | 372% | 182% | 120% | 116% |
| CCCCCCCCc1ccc(CCC(N)(CO)CO)cc1 [fingolimod] + Cc1cc(N2CCOCC2)cc2[nH]c(-c3c(NC[C@@H](O)c4cccc(Cl)c4)cc[nH]c3=O)nc12 [BMS536924] (first compound 2 µM, partner dose 0.2 µM) | 291% | 363% | 85.7% | 97.4% | 94.8% | 100% | 94.9% | 80.3% | 167% |
| CC(=O)O[C@@]12CO[C@@H]1C[C@H](O)[C@@]1(C)C(=O)[C@H](O)C3=C(C)[C@@H](OC(=O)[C@H](O)[C@@H](NC(=O)OC(C)(C)C)c4ccccc4)C[C@@](O)([C@@H](OC(=O)c4ccccc4)[C@H]21)C3(C)C [Docetaxel] + O=C(O)c1ccc(-c2c[nH]c3ncc(-c4ccccc4)cc23)cc1C1CCCC1 [GSK650394] (first compound 0.0001 µM, partner dose 0.16 µM) | 541% | 500% | 375% | 689% | 132% | 292% | 301% | 93.4% | 135% |
| Cn1cnc2c(F)c(Nc3ccc(Br)cc3Cl)c(C(=O)NOCCO)cc21 [selumetinib] + O=C(O)c1ccc(-c2c[nH]c3ncc(-c4ccccc4)cc23)cc1C1CCCC1 [GSK650394] (first compound 0.015 µM, partner dose 0.16 µM) | 132% | 43.6% | 97.1% | 112% | 95.4% | 222% | 467% | 82.2% | 72.3% |
| NC(=O)c1ccc(N(C(N)=O)c2c(F)cccc2F)nc1-c1ccc(F)cc1F + CN(C)S(=O)(=O)c1ccc2c(c1)/C(=C/c1cc3c([nH]1)CCCC3)C(=O)N2 [SU6656] (first compound 0.4 µM, partner dose 0.4 µM) | 292% | 133% | 105% | 72.2% | 91.7% | 97.8% | 97.7% | 64.2% | 61.9% |
| Cn1cnc2c(F)c(Nc3ccc(Br)cc3Cl)c(C(=O)NOCCO)cc21 [selumetinib] + C=CCn1c(=O)c2cnc(Nc3ccc(N4CCN(C)CC4)cc3)nc2n1-c1cccc(C(C)(C)O)n1 [MK1775] (first compound 0.015 µM, partner dose 0.02 µM) | 124% | 74.2% | 102% | 108% | 131% | 102% | 583% | 80.5% | 47.3% |

Quoted at random: 2 records from the list, in no set order.

| SMILES | cleaved PARP positive nuclei fraction (COLO792) | cleaved PARP positive nuclei fraction (COLO800) | cleaved PARP positive nuclei fraction (COLO829) | cleaved PARP positive nuclei fraction (G361) | cleaved PARP positive nuclei fraction (IPC-298) | cleaved PARP positive nuclei fraction (IST-MEL1) | cleaved PARP positive nuclei fraction (LB2518-MEL) | cleaved PARP positive nuclei fraction (LOXIMVI) | cleaved PARP positive nuclei fraction (MEL-HO) |
| --- | --- | --- | --- | --- | --- | --- | --- | --- | --- |
| C[C@@H](N)c1ccc(C(=O)Nc2ccnc3[nH]ccc23)cc1 + COc1cc2c(Oc3ccc4[nH]c(C)cc4c3F)ncnc2cc1OCCCN1CCCC1 [cediranib] (first compound 0.4 µM, partner dose 0.4 µM) | 166% | 44% | 62.2% | 93.9% | 119% | 31.3% | 76.6% | 130% | 157% |
| CN(c1ncccc1CNc1nc(Nc2ccc3c(c2)CC(=O)N3)ncc1C(F)(F)F)S(C)(=O)=O + C=CCn1c(=O)c2cnc(Nc3ccc(N4CCN(C)CC4)cc3)nc2n1-c1cccc(C(C)(C)O)n1 [MK1775] (first compound 0.08 µM, partner dose 0.02 µM) | 89% | 143% | 36% | 90.3% | 88.3% | 98.5% | 108% | 126% | 138% |

— the supplement of paper PMC4604168 (melanoma cell lines)
